{"source": "paper PMC9892521", "biological_target": "programmed death-ligand 1 (PD-L1) (UniProt Q9NZQ7)", "experiment": "co-IP; endogenous immunoprecipitation from cell lysate; lysis buffer 10 mM Tris-HCl pH 7.4, 150 mM NaCl, 5 mM NaF, 10 mM DTT, 5% glycerol; 5 ug of the indicated antibodies or isotype control IgG-conjugated beads, overnight at 4 °C; western blot", "note": "No constants are given. Whether binding was seen depends on the method and setting. Binding seen in cells or lysates may run through a third protein. Some binding calls cover weakened binding; strength is not graded here.", "data": [{"substance": "USP20 (from UniProt Q9Y2K6 1-914) (enzyme)", "values": [{"measurement": "binding", "result": "binds"}]}]}
